# Reference: the supplement of paper PMC12067093, “Discovery and optimisation of a covalent ligand for TRIM25 and its application to targeted protein ubiquitination” (Chemical Science, 2025)
# By UniProt entry, the sequences of proteins in these tests, tags left out. Where a name states a change or a piece, a line headed by the entry shows the natural chain unless it says otherwise.
# UniProt Q96EK7: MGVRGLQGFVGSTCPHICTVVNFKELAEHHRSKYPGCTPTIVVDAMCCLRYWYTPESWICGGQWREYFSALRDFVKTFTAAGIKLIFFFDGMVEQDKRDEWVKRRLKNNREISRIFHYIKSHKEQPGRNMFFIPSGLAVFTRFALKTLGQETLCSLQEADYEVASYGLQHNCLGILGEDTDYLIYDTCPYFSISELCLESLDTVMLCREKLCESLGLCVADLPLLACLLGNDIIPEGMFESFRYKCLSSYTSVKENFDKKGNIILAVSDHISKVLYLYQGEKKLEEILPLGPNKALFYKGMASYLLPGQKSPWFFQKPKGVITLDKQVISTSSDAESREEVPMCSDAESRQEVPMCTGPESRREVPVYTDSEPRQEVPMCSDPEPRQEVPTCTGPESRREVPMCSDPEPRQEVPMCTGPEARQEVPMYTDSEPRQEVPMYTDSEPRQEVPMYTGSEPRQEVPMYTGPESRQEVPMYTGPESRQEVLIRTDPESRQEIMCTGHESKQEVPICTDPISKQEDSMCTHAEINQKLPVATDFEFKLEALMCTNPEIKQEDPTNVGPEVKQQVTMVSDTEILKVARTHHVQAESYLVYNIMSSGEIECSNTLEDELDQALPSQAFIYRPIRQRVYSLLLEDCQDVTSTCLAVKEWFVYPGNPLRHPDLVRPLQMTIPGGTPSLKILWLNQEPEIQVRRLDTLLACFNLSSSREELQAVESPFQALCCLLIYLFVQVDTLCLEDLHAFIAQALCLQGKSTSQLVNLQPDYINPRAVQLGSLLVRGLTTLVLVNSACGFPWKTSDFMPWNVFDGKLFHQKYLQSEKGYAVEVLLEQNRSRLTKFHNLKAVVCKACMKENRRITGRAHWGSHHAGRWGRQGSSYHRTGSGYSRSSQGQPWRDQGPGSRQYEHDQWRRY
# UniProt Q15910, whole entry, looked up: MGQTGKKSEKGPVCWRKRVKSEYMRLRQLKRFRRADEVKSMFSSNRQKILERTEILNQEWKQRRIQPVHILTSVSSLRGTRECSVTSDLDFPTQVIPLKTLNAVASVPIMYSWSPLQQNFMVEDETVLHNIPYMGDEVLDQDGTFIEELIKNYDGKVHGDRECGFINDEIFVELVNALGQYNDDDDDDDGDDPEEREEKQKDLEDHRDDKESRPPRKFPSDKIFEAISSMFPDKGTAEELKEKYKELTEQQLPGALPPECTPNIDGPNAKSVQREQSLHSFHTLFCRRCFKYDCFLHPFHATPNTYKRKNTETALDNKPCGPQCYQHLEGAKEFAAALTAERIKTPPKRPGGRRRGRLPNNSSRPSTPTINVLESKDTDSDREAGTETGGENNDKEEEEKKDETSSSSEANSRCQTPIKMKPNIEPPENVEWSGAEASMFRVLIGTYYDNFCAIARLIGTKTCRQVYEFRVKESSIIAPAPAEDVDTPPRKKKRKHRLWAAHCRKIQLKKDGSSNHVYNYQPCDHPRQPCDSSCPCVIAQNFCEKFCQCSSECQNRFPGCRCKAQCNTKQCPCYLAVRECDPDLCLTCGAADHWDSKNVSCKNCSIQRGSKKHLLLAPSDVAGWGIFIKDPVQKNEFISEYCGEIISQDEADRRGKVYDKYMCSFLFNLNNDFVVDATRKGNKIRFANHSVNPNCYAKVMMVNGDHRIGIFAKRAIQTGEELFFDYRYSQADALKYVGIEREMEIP
# UniProt P84090, whole entry, looked up: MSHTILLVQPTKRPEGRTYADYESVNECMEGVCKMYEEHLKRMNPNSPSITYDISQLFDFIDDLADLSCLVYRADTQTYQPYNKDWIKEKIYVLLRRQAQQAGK
# UniProt Q9Y3B2, whole entry, looked up: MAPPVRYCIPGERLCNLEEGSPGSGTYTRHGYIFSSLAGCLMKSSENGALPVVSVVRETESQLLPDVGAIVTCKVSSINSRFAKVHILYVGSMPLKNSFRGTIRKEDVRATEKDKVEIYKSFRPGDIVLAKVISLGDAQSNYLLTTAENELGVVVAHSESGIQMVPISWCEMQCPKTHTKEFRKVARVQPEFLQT
# UniProt Q5T8I3: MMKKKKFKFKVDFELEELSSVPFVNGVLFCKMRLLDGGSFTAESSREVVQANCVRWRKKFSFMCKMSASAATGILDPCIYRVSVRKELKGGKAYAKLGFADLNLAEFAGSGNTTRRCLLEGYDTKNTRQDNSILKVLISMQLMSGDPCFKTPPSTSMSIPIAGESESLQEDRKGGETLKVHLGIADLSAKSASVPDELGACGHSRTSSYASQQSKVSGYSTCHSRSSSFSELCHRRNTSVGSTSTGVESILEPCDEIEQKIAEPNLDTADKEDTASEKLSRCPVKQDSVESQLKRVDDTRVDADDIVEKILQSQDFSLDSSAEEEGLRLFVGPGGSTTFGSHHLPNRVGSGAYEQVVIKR
# UniProt Q01844: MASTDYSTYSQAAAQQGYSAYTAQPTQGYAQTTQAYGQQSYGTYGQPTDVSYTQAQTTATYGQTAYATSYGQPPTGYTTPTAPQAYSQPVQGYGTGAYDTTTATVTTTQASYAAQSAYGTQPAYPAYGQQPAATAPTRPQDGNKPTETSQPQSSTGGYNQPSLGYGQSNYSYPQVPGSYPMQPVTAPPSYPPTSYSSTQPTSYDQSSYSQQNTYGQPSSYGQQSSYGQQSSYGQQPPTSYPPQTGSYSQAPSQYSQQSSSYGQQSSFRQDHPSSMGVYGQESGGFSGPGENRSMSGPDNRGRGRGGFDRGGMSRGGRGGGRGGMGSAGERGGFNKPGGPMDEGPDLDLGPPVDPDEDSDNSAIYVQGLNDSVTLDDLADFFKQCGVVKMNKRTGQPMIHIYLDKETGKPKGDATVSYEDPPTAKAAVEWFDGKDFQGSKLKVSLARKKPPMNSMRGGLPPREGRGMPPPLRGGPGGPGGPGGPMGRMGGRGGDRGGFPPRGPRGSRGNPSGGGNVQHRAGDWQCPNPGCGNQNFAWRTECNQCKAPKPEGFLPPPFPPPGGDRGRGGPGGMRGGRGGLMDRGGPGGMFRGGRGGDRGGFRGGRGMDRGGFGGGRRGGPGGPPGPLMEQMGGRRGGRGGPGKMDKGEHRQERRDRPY
# UniProt Q8IV48: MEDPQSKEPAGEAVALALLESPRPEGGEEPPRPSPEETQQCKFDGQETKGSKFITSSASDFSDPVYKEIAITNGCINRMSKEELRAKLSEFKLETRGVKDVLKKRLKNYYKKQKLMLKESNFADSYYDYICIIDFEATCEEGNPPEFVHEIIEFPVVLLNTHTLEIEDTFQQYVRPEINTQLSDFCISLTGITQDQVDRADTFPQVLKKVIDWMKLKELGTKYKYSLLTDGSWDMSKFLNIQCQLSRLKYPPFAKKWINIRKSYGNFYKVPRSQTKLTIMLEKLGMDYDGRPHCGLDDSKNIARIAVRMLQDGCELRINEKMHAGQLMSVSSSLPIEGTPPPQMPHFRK
# UniProt O60447: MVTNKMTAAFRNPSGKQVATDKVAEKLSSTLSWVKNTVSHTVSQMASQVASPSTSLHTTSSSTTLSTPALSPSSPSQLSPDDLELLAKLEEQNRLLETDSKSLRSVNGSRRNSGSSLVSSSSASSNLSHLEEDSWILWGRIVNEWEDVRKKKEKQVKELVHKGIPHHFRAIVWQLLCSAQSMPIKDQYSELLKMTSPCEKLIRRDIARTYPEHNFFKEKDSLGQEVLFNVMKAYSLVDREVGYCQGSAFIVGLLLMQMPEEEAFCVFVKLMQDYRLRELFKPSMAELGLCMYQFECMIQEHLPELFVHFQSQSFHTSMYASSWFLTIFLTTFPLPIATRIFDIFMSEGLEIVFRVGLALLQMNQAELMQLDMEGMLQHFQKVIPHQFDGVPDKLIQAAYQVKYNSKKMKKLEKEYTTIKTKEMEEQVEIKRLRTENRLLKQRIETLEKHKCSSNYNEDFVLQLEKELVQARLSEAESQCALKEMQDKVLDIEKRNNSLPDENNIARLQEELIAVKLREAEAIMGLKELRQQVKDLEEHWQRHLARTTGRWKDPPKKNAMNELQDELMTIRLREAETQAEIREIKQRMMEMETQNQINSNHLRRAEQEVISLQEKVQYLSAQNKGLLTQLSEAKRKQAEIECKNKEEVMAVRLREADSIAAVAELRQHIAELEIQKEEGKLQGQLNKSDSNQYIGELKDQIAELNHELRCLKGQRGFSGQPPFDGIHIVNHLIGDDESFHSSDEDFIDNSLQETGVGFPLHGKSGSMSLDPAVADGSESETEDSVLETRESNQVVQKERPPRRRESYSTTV
# UniProt O60645: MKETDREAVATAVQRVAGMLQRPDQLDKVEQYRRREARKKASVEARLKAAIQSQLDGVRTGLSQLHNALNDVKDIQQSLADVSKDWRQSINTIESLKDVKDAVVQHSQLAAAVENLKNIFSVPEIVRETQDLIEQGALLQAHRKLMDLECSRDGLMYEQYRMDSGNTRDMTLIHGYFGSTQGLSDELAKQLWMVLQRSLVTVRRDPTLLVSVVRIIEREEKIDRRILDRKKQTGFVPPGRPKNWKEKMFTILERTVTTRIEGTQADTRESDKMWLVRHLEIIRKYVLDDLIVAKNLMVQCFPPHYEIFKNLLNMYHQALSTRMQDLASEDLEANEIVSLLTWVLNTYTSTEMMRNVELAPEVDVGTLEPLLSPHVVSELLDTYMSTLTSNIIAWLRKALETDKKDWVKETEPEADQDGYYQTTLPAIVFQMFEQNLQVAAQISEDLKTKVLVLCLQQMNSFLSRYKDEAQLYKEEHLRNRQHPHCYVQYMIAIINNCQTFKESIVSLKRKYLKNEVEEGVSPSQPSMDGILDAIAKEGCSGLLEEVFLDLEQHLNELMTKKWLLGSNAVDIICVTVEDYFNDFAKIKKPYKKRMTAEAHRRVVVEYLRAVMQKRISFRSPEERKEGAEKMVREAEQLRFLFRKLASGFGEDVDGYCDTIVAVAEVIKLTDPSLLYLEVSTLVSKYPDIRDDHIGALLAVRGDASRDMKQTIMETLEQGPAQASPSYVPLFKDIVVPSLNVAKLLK
# UniProt Q96CS3: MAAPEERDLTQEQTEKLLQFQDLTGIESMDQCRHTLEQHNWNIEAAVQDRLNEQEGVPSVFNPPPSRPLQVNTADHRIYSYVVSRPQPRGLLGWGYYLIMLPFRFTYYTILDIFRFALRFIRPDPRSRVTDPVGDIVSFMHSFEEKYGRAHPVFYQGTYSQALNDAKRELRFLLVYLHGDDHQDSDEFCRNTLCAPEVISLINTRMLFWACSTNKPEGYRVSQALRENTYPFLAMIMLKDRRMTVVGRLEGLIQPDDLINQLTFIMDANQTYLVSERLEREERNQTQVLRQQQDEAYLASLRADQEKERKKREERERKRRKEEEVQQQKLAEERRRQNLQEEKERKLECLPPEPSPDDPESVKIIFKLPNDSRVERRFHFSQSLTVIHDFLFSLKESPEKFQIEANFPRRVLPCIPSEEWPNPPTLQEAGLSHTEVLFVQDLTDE
# UniProt Q01469, whole entry, looked up: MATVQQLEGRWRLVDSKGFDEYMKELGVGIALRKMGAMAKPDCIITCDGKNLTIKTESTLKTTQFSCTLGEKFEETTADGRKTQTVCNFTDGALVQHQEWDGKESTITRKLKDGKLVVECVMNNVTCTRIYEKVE
# UniProt Q7Z2K6: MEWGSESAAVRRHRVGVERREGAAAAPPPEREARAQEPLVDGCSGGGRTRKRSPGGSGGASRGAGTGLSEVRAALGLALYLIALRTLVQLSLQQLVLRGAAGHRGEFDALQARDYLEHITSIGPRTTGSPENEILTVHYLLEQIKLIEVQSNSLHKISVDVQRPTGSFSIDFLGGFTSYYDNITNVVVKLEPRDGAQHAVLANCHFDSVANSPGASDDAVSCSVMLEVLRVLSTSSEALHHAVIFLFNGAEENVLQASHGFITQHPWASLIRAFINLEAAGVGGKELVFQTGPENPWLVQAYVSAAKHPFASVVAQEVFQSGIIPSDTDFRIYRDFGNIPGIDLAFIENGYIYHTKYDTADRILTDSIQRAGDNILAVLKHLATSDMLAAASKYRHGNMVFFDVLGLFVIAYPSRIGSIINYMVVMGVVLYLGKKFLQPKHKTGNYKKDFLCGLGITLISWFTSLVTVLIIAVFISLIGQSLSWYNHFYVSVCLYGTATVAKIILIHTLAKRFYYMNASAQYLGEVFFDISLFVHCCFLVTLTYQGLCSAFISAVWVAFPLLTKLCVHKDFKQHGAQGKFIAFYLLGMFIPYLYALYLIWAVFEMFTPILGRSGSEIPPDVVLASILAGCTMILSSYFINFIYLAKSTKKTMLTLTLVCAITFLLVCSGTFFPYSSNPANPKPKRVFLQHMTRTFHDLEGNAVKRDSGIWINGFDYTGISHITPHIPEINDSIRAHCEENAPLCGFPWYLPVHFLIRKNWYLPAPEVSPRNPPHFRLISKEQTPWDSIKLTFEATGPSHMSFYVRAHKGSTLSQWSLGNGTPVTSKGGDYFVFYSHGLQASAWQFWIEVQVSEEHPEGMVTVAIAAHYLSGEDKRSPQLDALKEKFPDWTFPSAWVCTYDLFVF
# The list shows a part of the results.
# Compound: CC1Cc2ccccc2N1C(=O)C1CCCN(C1)C(=O)CCl (mixture of isomers) [TRIM25 ligand 11 (diastereomer mixture)]
# Test: probe-labelled cysteine peptide fold change vs DMSO (competition) (log2 fold change); higher = less target engagement (more negative = stronger competition)
# Details: THP-1, incubation time: 4 h
# 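Further: competitive chemoproteomic profiling in live THP-1 cells with an iodoacetamide desthiobiotin (IA-DTB) probe, comparing probe-labelled peptide intensities in compound-treated cells against DMSO-treated controls.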
Target,probe-labelled cysteine peptide fold change (10 µM),probe-labelled cysteine peptide fold change (50 µM)
FAM120B_Q96EK7_344_QVISTSSDAESREEVPMCSDAESR (UniProt Q96EK7),-0.109,-0.27
EZH2_Q15910_286_EQSLHSFHTLFCR (UniProt Q15910),0.0765,-0.00489
ERH_P84090_28+33_TYADYESVNECMEGVCK (UniProt P84090),-0.179,-0.359
EXOSC5_Q9NQT4_102_NTCEAVVLGTLHPR (UniProt Q9NQT4),0.139,0.235
FAM120A_Q9NZB2_192_ENGFHGLVAYDSDYALCNIPYYFSAHALK (UniProt Q9NZB2),-0.0966,-0.0728
FAM120B_Q96EK7_523_QEDSMCTHAEINQK (UniProt Q96EK7),0.0281,-0.387
EXOSC1_Q9Y3B2_73_ETESQLLPDVGAIVTCK (UniProt Q9Y3B2),-0.279,-0.13
EXOSC9_Q06265_46_ISFGTDYGCCIVELGK (UniProt Q06265),0.0206,0.163
FAM102B_Q5T8I3_254_RNTSVGSTSTGVESILEPCDEIEQK (UniProt Q5T8I3),-0.0605,-0.127
EWSR1_Q01844_384_QCGVVK (UniProt Q01844),-0.164,-0.267
ERLIN1_O75477_128_IHHELNQFCSAHTLQEVYIELFDQIDENLK (UniProt O75477),0.216,0.0433
EXT2_Q93063_657_CPECTAIDGLSLDQTHMVER (UniProt Q93063),-0.118,0.185
ETFDH_Q16134_248_VTIFAEGCHGHLAK (UniProt Q16134),0.0429,0.154
FAH_P16930_193_RPMGQMKPDDSKPPVYGACK (UniProt P16930),-0.16,-0.224
ETF1_P62495_335_YVLHCQGTEEEK (UniProt P62495),0.181,0.139
EXOC6_Q8TAG9_532_TLSSCLLNLIR (UniProt Q8TAG9),-0.0034,0.132
EXOSC2_Q13868_191_THFHDLPCGASVILGNNGFIWIYPTPEHKEEEAGGFIANLEPVSLADR (UniProt Q13868),0.127,0.0376

Target,probe-labelled cysteine peptide fold change (10 µM),probe-labelled cysteine peptide fold change (50 µM)
ERI1_Q8IV48_75_EIAITNGCINR (UniProt Q8IV48),-0.0532,-0.243
EVI5_O60447_479_LSEAESQCALK (UniProt O60447),-0.0221,-0.169
EXOSC5_Q9NQT4_33_HFACEQNLLSRPDGSASFLQGDTSVLAGVYGPAEVK (UniProt Q9NQT4),0.193,-0.124
EXOC3_O60645_161_KLMDLECSR (UniProt O60645),-0.0293,-0.116
EXOSC1_Q9Y3B2_15_LCNLEEGSPGSGTYTR (UniProt Q9Y3B2),0.0101,0.121
ERCC5_P28715_550_NETHAEVLEQQNELCPYESK (UniProt P28715),-0.154,-0.474
FAF2_Q96CS3_349_KLECLPPEPSPDDPESVK (UniProt Q96CS3),0.0122,-0.106
FABP5_Q01469_120+127_LVVECVMNNVTCTR (UniProt Q01469),0.0776,0.0117
EURL_Q9NYK6_112_DLDSDSECSK (UniProt Q9NYK6),0.0235,-0.0278
ERCC1_P07992_274_EDLALCPGLGPQK (UniProt P07992),0.0528,0.107
ERCC3_P19447_284_CIHLEYPLLAEYDFR (UniProt P19447),0.0981,0.08
EZH2_Q15910_260_ELTEQQLPGALPPECTPNIDGPNAK (UniProt Q15910),-0.13,-0.25
FAM120C_Q9NX05_745_AFLACMK (UniProt Q9NX05),-0.126,-0.00967
ERO1A_Q96HE7_85_RPCPFWNDISQCGR (UniProt Q96HE7),0.182,0.183
ERLIN2_O94905_262_ADAECYTAMK (UniProt O94905),0.0253,-0.0671
ERMP1_Q7Z2K6_737_AHCEENAPLCGFPWYLPVHFLIR (UniProt Q7Z2K6),-0.0364,0.0032
